The supplement of paper PMC11546906
Structures can show the parent of a compound that is named as a salt. The list shows a part of the results. Repeats in this data set agree poorly, so a single value says little.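 FDA-approved drugs were each paired with colistin at one-eighth its MIC and screened against a multidrug-resistant, mcr-1-positive clinical E. coli isolate, with OD600 read after 24 h. Drug-free bacteria served as growth control, plain broth as blank. Combinations were active if OD600 dropped below 0.2.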

System: Escherichia coli 42 (mcr-1-positive clinical isolate)
Test: OD600 after 24 h growth with compound plus colistin (absorbance units (OD600)); higher = more bacterial growth (less inhibition)
Settings: first compound 25 µM; colistin concentration 0.5 ug/mL; incubation time 24 h; 37 °C

Compound	OD600
Cc1c(OCC(F)(F)F)ccnc1C[S@@+]([O-])c1nc2ccccc2[nH]1 [(R)-Lansoprazole] + CCC(C)CCCC(=O)N[C@@H](CCN)C(=O)N[C@H](C(=O)N[C@@H](CCN)C(=O)N[C@H]1CCNC(=O)[C@H]([C@@H](C)O)NC(=O)[C@H](CCN)NC(=O)[C@H](CCN)NC(=O)[C@H](CC(C)C)NC(=O)[C@@H](CC(C)C)NC(=O)[C@H](CCN)NC1=O)[C@@H](C)O [colistin]	inactive: 1.08
CN1CCN(C2=Nc3ccccc3Oc3ccc(Cl)cc32)CC1 [Loxapine succinate] + CCC(C)CCCC(=O)N[C@@H](CCN)C(=O)N[C@H](C(=O)N[C@@H](CCN)C(=O)N[C@H]1CCNC(=O)[C@H]([C@@H](C)O)NC(=O)[C@H](CCN)NC(=O)[C@H](CCN)NC(=O)[C@H](CC(C)C)NC(=O)[C@@H](CC(C)C)NC(=O)[C@H](CCN)NC1=O)[C@@H](C)O [colistin]	inactive: 0.734
O=C1Cc2cc(CCN3CCN(c4nsc5ccccc45)CC3)c(Cl)cc2N1 [Ziprasidone hydrochloride monohydrate] + CCC(C)CCCC(=O)N[C@@H](CCN)C(=O)N[C@H](C(=O)N[C@@H](CCN)C(=O)N[C@H]1CCNC(=O)[C@H]([C@@H](C)O)NC(=O)[C@H](CCN)NC(=O)[C@H](CCN)NC(=O)[C@H](CC(C)C)NC(=O)[C@@H](CC(C)C)NC(=O)[C@H](CCN)NC1=O)[C@@H](C)O [colistin]	inactive: 0.93
CO/N=C(\C(=O)N[C@@H]1C(=O)N2C(C(=O)O)=C(CSc3nc(=O)c(O)nn3C)CS[C@H]12)c1csc(N)n1 [Ceftriaxone sodium hydrate] + CCC(C)CCCC(=O)N[C@@H](CCN)C(=O)N[C@H](C(=O)N[C@@H](CCN)C(=O)N[C@H]1CCNC(=O)[C@H]([C@@H](C)O)NC(=O)[C@H](CCN)NC(=O)[C@H](CCN)NC(=O)[C@H](CC(C)C)NC(=O)[C@@H](CC(C)C)NC(=O)[C@H](CCN)NC1=O)[C@@H](C)O [colistin]	active: 0.043
